Tested on: GM-CSF_pSTAT5
Experiment: cells
Conditions: read-out: GM-CSF_pSTAT5 inhibition IC50

C[C@@H]1CCN(C(=O)CC#N)C[C@@H]1N(C)c1ncnc2[nH]ccc12 [CP690550]
IC50: ~300 nM

From patent US20130218474A1, “Benchmarks for Normal Cell Identification” (priority 2012, published 2013)
